Laboratory results reported in PMC8322138, “BRCA2 binding through a cryptic repeated motif to HSF2BP oligomers does not impact meiotic recombination” (Nature Communications, 2021).
These are yes or no findings as the source states them, for the method shown. In cells and extracts the contact can be indirect. Some binding calls cover weakened binding; strength is not graded here. For part of these data: Sequences can lack the tags named with a protein. Values belong to the molecule of their own block, whether it stands above or below them.

By UniProt entry, the sequences of proteins in these tests, tags left out.
UniProt P97929: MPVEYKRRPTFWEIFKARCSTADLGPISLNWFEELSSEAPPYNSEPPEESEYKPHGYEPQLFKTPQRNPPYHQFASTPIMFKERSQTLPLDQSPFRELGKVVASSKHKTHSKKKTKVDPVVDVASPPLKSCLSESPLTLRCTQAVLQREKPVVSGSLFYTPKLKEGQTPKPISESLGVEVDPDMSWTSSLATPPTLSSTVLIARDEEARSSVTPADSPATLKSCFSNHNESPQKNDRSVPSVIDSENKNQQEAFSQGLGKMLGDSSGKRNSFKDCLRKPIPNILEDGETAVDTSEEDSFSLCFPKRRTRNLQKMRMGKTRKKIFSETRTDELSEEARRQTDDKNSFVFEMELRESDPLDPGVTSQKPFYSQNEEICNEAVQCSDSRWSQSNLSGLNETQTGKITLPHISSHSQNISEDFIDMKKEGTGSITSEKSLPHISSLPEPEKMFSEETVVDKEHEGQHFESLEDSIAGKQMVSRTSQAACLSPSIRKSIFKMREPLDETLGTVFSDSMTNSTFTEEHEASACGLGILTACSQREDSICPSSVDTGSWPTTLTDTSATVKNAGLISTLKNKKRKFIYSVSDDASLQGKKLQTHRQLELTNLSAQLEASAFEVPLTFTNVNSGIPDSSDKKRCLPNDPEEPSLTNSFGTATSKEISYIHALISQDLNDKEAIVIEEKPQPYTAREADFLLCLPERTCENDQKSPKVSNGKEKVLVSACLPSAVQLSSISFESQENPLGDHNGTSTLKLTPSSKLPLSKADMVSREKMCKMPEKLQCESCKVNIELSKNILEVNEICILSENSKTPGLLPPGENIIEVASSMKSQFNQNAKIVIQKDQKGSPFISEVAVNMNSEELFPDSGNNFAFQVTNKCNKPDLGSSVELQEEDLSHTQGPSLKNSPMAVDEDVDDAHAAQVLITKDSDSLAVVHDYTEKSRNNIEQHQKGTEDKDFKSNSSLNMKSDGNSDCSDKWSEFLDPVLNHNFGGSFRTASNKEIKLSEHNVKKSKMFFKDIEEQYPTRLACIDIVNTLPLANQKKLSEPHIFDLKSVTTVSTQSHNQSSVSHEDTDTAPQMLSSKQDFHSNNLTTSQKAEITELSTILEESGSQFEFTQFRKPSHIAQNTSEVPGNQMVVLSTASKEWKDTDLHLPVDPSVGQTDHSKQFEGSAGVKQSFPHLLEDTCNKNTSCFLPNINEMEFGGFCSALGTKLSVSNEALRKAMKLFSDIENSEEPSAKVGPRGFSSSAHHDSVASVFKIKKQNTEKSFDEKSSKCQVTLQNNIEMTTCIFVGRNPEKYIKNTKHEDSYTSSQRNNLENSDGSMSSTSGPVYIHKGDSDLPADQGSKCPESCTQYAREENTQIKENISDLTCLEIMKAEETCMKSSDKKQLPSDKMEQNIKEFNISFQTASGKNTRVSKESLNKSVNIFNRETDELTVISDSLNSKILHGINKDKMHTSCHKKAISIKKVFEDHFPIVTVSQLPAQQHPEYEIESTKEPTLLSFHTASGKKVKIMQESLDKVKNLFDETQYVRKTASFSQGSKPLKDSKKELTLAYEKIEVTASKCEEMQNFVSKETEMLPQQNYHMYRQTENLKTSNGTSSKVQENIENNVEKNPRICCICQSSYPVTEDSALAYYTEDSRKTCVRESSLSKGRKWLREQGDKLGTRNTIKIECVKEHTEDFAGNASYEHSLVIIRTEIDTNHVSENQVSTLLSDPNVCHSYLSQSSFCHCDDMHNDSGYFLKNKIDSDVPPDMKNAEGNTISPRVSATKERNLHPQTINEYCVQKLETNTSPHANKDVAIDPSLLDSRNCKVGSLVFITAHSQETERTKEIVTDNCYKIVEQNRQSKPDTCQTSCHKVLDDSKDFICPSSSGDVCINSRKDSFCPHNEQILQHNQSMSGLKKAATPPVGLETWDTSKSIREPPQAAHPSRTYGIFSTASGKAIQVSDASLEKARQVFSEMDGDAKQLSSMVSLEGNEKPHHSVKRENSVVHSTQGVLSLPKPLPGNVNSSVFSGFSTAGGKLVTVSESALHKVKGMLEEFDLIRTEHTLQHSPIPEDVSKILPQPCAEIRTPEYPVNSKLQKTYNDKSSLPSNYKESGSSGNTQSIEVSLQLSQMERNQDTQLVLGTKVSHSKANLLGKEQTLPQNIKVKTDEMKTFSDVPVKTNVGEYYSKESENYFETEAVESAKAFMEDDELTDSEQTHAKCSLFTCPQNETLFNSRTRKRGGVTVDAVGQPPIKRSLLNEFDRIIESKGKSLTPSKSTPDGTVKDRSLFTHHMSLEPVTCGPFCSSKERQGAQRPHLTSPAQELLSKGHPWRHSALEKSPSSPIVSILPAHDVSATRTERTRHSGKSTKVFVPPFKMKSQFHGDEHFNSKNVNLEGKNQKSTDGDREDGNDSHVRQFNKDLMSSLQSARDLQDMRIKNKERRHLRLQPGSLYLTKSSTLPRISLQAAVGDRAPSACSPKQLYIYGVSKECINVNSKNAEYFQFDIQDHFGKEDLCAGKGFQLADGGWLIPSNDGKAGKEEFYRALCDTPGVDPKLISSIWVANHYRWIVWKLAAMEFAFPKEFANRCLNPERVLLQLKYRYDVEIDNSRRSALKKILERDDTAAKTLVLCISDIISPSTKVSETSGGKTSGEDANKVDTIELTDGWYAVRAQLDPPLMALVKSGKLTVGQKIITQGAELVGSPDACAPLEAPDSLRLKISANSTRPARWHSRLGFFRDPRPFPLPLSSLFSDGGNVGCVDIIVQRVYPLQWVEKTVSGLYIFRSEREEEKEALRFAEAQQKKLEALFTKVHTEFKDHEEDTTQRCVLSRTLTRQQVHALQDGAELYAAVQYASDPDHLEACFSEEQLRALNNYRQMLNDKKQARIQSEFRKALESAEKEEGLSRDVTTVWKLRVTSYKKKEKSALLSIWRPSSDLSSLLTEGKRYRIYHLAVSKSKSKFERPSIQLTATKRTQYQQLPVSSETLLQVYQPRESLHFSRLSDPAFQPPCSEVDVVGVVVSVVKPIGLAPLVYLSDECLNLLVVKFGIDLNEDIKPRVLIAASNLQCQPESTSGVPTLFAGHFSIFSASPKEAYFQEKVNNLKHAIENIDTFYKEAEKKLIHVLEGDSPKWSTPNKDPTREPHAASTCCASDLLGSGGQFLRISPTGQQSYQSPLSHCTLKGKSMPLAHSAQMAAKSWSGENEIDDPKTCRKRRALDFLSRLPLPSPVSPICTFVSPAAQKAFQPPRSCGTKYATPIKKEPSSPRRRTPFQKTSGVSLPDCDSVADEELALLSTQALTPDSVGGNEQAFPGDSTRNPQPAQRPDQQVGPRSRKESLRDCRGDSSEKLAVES

Assays:
[1] = target: T1, mouse HSF2BP, endogenous in testis (mouse (endogenous in testis)) (UniProt Q9D4G2); assay: co-IP; mouse testis lysate (NETT++ or RIPA++), anti-HSF2BP or anti-RAD51 antibodies cross-linked to protein A beads, 4 h at 4 C; BRCA2, BRME1, RAD51 and HSF2BP blotted
T1 sequence: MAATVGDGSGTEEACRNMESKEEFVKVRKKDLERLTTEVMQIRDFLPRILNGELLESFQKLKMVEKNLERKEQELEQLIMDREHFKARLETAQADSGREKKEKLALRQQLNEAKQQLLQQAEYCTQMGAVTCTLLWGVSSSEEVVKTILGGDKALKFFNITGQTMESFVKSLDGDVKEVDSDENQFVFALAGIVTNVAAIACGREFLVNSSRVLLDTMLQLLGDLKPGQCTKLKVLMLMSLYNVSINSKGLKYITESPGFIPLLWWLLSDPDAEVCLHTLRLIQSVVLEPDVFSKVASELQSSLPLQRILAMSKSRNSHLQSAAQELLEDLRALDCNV

[2] = target: T2, mouse HSF2BP-GFP (homozygous Hsf2bp-GFP knock-in allele) (mouse (endogenous in mES cells)) (UniProt Q9D4G2); assay: co-IP; anti-GFP nanobody beads on lysates of Hsf2bp^GFP/GFP mES cells with Brca2 wt, ∆12 or ∆12-14 alleles; BRCA2 blotted, fluorescent secondary antibodies; NETT buffer
T2 sequence: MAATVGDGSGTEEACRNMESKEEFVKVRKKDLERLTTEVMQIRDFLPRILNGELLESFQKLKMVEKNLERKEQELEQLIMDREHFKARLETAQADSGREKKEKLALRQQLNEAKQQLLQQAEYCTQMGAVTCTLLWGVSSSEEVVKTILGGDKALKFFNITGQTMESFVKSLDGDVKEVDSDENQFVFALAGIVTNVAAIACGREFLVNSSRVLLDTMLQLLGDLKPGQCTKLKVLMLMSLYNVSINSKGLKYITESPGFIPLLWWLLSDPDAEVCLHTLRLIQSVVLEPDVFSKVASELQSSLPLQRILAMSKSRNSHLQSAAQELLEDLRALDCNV

[3] = target: mouse full-length BRCA2-GFP (homozygous Brca2-GFP knock-in allele) (mouse (endogenous in mES cells)) (UniProt P97929); assay: co-IP; anti-GFP nanobody beads on lysates of mES cells with homozygous Brca2-GFP alleles (full, ∆12, ∆12-14); HSF2BP blotted, fluorescent secondary antibodies; NETT buffer

- binding [1]: binds
Molecule: mouse BRCA2, endogenous in Brca2^+/+ testis (from UniProt P97929 1-3329)

- binding [2]: binds
Molecule: mouse BRCA2, endogenous in Hsf2bp^GFP/GFP Brca2^wt/wt mES cells (from UniProt P97929 1-3329)

- binding [3]: binds
B1: mouse HSF2BP, endogenous in mES cells (protein, UniProt Q9D4G2 1-338)
chain: MAATVGDGSGTEEACRNMESKEEFVKVRKKDLERLTTEVMQIRDFLPRILNGELLESFQKLKMVEKNLERKEQELEQLIMDREHFKARLETAQADSGREKKEKLALRQQLNEAKQQLLQQAEYCTQMGAVTCTLLWGVSSSEEVVKTILGGDKALKFFNITGQTMESFVKSLDGDVKEVDSDENQFVFALAGIVTNVAAIACGREFLVNSSRVLLDTMLQLLGDLKPGQCTKLKVLMLMSLYNVSINSKGLKYITESPGFIPLLWWLLSDPDAEVCLHTLRLIQSVVLEPDVFSKVASELQSSLPLQRILAMSKSRNSHLQSAAQELLEDLRALDCNV
